Measurements as given in patent US10550150B2 (CADILA HEALTHCARE LIMITED, priority 2015, dated 2020).

Assay: general procedure: Fmoc solid-phase peptide synthesis; Fmoc-PAL-PEG-PS, Fmoc-Rink amide MBHA, 2-chloro-trityl chloride, HMP, trichloroacetimidate or p-nitrophenylcarbonate Wan; DIPCDI/HOBt or DIPCDI/HOAt (SPPS); DCC/HOBt (solution phase)
[1] = whole synthesis, analytical RP-HPLC

Row | Substance | step yield (late stage modification step) [%] | step yield (coupling step) [%] | also measured
1 | 6,9-dibenzyl-15-(4-((tert-butoxycarbonyl)amino)butyl)-12-isobutyl-2,2-dimethyl-4,7,10,13-tetraoxo-3-oxa-5,8,11,14-tetraazahexadecan-16-oic acid | 97 |  | 
2 | H2N-Phe-Phe-Leu-Lys-Hpp-CONH2 |  |  | crude HPLC purity [1]: 85%; final HPLC purity [1]: 99.18%
3 | N-(6-amino-1-(3-benzyl-3,6-diazabicyclo[3.1.1]heptan-6-yl)-1-oxohexan-2-yl)-2-(2-(2-amino-3-phenylpropanamido)-3-phenylpropanamido)-4-methylpentanamide | 84 |  | 
4 | bis-Boc-N-(6-amino-1-(3-benzyl-3,6-diazabicyclo[3.1.1]heptan-6-yl)-1-oxohexan-2-yl)-2-(2-(2-amino-3-phenylpropanamido)-3-phenylpropanamido)-4-methylpentanamide |  | 89 | 
5 | methyl 6,9-dibenzyl-15-(4-((tert-butoxycarbonyl)amino)butyl)-12-isobutyl-2,2-dimethyl-4,7,10,13-tetraoxo-3-oxa-5,8,11,14-tetraazahexadecan-16-oate |  | 92 | 
